Test [1] has as its target GFP-paxillin (human) (UniProt P49023). Briefly: co-IP; lysates of HEK293T cells overexpressing FLAG-Nudel, GFP-paxillin (or GFP-Pax^LD, GFP-Pax^LIM) and a third GFP fusion protein (vinculin, FAK or a FAK mutant); anti-FLAG beads; immunoblotting. In general terms: In western blotting, separated proteins are transferred to a membrane and probed.
The target in test [2] is T1, FLAG-Nudel (expressed in E. coli) (human) (UniProt Q9GZM8).
T1 sequence: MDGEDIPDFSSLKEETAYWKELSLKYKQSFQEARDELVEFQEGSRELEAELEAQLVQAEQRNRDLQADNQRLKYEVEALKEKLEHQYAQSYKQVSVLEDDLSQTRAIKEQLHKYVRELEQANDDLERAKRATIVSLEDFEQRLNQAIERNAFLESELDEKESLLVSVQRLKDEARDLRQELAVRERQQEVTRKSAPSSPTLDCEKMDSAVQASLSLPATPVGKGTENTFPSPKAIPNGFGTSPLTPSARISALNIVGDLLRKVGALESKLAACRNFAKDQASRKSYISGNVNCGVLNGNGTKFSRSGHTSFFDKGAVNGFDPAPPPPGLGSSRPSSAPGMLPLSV
The test is described as follows: pull-down; reciprocal: bacterial lysates containing GST-tagged vinculin or paxillin mixed with lysate containing FLAG-Nudel, then anti-FLAG resin (the legend calls it co-IP).

The chains behind the UniProt entries cited, without tags or fusion partners. Where a name states a change or a piece, a line headed by the entry shows the natural chain unless it says otherwise. A line that says so, or that is headed by a name, gives the form on record, which may keep a tag or linker.
UniProt P49023: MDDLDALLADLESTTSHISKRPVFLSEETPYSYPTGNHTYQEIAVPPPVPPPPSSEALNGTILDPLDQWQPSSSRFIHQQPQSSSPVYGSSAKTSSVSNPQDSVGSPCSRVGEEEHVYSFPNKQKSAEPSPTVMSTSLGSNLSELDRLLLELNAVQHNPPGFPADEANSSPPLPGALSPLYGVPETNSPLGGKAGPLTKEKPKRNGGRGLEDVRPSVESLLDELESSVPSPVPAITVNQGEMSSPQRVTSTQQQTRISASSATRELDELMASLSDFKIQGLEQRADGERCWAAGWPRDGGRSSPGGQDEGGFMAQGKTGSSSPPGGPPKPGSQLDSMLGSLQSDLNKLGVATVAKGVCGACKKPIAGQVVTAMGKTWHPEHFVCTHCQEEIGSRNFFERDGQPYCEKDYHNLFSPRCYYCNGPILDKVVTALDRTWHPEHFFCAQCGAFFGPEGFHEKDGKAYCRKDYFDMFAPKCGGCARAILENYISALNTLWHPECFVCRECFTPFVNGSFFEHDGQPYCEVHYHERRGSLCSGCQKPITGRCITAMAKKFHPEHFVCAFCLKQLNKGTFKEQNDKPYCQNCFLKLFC
UniProt P34152: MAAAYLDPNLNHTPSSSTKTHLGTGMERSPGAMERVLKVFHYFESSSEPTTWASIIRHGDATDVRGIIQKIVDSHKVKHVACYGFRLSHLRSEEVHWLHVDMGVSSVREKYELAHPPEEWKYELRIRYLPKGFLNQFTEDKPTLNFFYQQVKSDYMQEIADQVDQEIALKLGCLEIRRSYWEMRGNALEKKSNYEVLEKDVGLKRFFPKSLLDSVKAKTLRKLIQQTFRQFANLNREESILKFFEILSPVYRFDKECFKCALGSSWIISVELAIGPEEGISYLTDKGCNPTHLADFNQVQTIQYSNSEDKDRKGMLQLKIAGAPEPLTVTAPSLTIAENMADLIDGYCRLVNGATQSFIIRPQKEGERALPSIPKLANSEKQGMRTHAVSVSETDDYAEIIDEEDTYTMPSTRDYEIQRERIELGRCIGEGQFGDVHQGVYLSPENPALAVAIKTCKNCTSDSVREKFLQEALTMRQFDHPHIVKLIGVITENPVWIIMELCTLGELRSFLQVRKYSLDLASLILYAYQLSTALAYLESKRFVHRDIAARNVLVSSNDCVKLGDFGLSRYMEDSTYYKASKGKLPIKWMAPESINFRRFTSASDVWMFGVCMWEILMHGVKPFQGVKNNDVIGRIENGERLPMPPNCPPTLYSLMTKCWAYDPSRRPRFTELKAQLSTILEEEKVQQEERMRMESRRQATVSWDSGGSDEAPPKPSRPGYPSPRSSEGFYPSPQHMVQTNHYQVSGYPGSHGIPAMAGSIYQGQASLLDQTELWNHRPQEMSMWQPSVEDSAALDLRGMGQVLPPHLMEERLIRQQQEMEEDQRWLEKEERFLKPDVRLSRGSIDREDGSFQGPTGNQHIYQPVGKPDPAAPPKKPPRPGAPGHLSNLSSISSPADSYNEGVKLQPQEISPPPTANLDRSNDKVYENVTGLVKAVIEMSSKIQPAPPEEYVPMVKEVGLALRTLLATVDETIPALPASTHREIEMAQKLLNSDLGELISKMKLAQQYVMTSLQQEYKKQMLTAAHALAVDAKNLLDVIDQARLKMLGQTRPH
GFP-FAK^KD (P34152, form named): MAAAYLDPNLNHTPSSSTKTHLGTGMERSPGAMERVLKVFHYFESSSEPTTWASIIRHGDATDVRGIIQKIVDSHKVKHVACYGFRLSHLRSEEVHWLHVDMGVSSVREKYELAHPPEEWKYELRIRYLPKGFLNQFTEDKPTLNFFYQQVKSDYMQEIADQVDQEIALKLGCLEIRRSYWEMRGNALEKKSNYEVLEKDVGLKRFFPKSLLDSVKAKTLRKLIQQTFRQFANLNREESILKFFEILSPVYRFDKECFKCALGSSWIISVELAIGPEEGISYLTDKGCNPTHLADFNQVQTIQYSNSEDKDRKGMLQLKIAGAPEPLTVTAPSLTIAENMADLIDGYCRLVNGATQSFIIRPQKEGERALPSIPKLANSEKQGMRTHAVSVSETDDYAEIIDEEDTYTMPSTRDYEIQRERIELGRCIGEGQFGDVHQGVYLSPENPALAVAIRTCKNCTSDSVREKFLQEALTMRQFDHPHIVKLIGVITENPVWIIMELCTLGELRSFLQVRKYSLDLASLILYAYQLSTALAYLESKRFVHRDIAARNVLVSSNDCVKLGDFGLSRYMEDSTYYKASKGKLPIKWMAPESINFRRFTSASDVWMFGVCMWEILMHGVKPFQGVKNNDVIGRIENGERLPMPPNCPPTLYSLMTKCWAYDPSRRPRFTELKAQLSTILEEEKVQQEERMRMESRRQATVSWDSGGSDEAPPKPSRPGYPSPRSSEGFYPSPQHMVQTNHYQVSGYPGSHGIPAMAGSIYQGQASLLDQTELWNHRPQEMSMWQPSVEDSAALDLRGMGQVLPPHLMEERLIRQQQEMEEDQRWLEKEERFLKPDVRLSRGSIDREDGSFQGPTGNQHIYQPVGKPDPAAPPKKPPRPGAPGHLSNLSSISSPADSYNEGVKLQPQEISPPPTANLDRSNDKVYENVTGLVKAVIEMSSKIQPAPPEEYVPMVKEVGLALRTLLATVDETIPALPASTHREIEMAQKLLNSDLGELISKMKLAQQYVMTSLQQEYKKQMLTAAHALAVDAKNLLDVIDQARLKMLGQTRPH
GFP-FAK^Opn (P34152, form named): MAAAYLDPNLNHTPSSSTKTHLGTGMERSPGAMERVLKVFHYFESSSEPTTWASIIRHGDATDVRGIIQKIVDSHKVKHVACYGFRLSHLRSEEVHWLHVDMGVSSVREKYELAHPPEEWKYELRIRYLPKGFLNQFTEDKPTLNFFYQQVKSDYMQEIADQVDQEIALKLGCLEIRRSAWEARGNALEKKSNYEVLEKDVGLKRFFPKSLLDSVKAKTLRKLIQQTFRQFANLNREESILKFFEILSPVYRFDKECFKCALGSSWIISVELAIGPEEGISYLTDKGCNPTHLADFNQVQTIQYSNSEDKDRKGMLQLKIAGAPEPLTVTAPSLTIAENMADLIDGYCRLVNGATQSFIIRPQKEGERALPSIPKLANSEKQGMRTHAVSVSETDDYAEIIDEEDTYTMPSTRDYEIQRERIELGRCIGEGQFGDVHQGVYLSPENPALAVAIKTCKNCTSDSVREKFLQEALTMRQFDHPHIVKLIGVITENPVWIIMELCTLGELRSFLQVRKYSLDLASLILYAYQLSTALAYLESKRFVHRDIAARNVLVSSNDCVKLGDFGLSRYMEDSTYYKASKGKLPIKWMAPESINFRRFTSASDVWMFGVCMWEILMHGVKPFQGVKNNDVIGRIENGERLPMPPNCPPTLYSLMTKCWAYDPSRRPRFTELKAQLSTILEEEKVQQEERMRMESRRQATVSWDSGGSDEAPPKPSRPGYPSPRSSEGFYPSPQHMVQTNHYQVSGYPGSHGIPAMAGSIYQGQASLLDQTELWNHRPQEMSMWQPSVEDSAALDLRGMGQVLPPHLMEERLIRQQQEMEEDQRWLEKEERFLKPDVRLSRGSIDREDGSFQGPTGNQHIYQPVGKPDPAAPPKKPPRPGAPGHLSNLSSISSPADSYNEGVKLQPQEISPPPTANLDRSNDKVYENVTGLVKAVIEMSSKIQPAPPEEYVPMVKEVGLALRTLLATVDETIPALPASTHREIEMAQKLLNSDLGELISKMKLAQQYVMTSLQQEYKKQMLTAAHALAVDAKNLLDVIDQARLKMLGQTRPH

The target of another test is T2, FLAG-GFP-Nudel (human) (UniProt Q9GZM8).
T2 sequence: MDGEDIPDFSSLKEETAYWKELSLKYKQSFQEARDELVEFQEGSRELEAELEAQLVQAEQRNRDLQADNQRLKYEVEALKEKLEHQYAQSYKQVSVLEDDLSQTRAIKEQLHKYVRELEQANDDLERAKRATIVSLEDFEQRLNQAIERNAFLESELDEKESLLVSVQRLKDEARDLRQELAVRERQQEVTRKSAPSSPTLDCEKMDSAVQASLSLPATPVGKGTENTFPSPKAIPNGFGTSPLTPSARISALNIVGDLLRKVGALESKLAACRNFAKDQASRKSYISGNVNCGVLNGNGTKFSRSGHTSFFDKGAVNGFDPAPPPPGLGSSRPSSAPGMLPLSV
The test is described as follows: co-IP; low levels of FLAG-GFP-Nudel expressed in HEK293T cells transfected with control or increasing amounts of FAK RNAi plasmids; anti-FLAG resin; endogenous proteins detected by immunoblotting.

The target of test [3] is T3, FLAG-Nudel (human) (UniProt Q9GZM8).
T3 sequence: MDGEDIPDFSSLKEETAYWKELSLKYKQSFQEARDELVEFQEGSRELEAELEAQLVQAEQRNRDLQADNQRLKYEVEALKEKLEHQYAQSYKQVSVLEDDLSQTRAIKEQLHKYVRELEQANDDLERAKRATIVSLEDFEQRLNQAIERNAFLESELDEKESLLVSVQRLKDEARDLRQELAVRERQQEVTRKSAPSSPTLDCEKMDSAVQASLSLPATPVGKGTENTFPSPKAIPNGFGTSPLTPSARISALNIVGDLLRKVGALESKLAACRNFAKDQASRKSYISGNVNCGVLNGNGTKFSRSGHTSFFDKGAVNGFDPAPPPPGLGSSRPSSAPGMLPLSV
Briefly: co-IP; lysates of HEK293T cells coexpressing GFP-paxillin and a FLAG fusion protein; anti-FLAG M2 agarose beads 2 h at 4 °C in co-IP buffer (20 mM Tris-HCl pH 7.5, 100 mM KCl, 0.1% NP-40, 1 mM EDTA, 10% glycerol, 1 mM DTT, phosphatase and protease inhibitors); eluted with FLAG peptide; Ponceau S staining and immunoblotting.

The target of test [4] is T3, FLAG-Nudel (human). The test is described as follows: co-IP; as Figure S6B (FLAG-Nudel, GFP-Paxillin and a GFP-FAK mutant coexpressed) but in NIH3T3 and ECV304 cells; unpublished data.
Test [5] concerns the target T3, FLAG-Nudel (human). Briefly: co-IP; exogenous proteins expressed separately in HEK293T cells; cell lysates premixed for 2 h, then co-IP with anti-FLAG resin.
Test [6] has as its target T3, FLAG-Nudel (human). The test is described as follows: co-IP; lysates of HEK293T cells overexpressing FLAG-Nudel, GFP-paxillin (or GFP-Pax^LD, GFP-Pax^LIM) and a third GFP fusion protein (vinculin, FAK or a FAK mutant); anti-FLAG beads; immunoblotting.
Test [7] addresses GFP-paxillin (human) (UniProt P49023). The test is described as follows: co-IP; as Figure S6B (FLAG-Nudel, GFP-Paxillin and a GFP-FAK mutant coexpressed) but in NIH3T3 and ECV304 cells; unpublished data.
Another test deals with GST-paxillin (human) (UniProt P49023). Briefly: pull-down; bacterial lysates containing GST fusion proteins and FLAG-Nudel premixed for 1 h, then glutathione beads for 1 h at 4 °C; immunoblotting.

No constants are given. Whether binding was seen depends on the method and setting. Binding seen in cells or lysates may run through a third protein. Some results given as binding are weak or reduced against the parent protein; the word gives no strength. For some of these results: Tags and fused reporters may be left off the sequences shown.

With “GFP-FAK (from UniProt P34152 1-1052) (enzyme)”, the binding entry with GFP-paxillin (human) [1] is recorded as “binds”.

As for “GST-paxillin (from UniProt P49023 1-591)”, the binding result in test [2] is “binds”.

With “endogenous paxillin (from UniProt P49023 1-591)”, the binding entry with FLAG-GFP-Nudel (human) is given as “binds”.

As to “Tyr/Ser/Thr-phosphorylated isoforms of GFP-paxillin (from UniProt P49023 1-591)”, the binding result in the test with FLAG-Nudel (human) [3] is listed as “binds”.

With “GFP-FAK^KD (from UniProt P34152 1-1052) (enzyme)”, in the test with GFP-paxillin (human) [1], the binding result was “binds”.

On to “GFP-paxillin (from UniProt P49023 1-591)”, for which the binding result with FLAG-Nudel (human) [4], with FLAG-Nudel (human) [5], in the test with FLAG-Nudel (human) [3] and with FLAG-Nudel (human) [6] was “binds” in each case.

On to “GFP-FAK^Opn (from UniProt P34152 1-1052) (enzyme)”, for which the binding entry in the test with GFP-paxillin (human) [7] and with GFP-paxillin (human) [1] was “binds” throughout.

B1: GFP-Cdc42GAP (protein, UniProt Q07960 1-439)
chain: MDPLSELQDDLTLDDTSEALNQLKLASIDEKNWPSDEMPDFPKSDDSKSSSPELVTHLKWDDPYYDIARHQIVEVAGDDKYGRKIIVFSACRMPPSHQLDHSKLLGYLKHTLDQYVESDYTLLYLHHGLTSDNKPSLSWLRDAYREFDRKYKKNIKALYIVHPTMFIKTLLILFKPLISFKFGQKIFYVNYLSELSEHVKLEQLGIPRQVLKYDDFLKSTQKSPATAPKPMPPRPPLPNQQFGVSLQHLQEKNPEQEPIPIVLRETVAYLQAHALTTEGIFRRSANTQVVREVQQKYNMGLPVDFDQYNELHLPAVILKTFLRELPEPLLTFDLYPHVVGFLNIDESQRVPATLQVLQTLPEENYQVLRFLTAFLVQISAHSDQNKMTNTNLAVVFGPNLLWAKDAAITLKAINPINTFTKFLLDHQGELFPSPDPSGL
Regarding B1, in the test with FLAG-Nudel (human) [5], the binding entry is listed as “binds”.

B2: FLAG-Nudel (expressed in E. coli) (protein, UniProt Q9GZM8 1-345)
chain: MDGEDIPDFSSLKEETAYWKELSLKYKQSFQEARDELVEFQEGSRELEAELEAQLVQAEQRNRDLQADNQRLKYEVEALKEKLEHQYAQSYKQVSVLEDDLSQTRAIKEQLHKYVRELEQANDDLERAKRATIVSLEDFEQRLNQAIERNAFLESELDEKESLLVSVQRLKDEARDLRQELAVRERQQEVTRKSAPSSPTLDCEKMDSAVQASLSLPATPVGKGTENTFPSPKAIPNGFGTSPLTPSARISALNIVGDLLRKVGALESKLAACRNFAKDQASRKSYISGNVNCGVLNGNGTKFSRSGHTSFFDKGAVNGFDPAPPPPGLGSSRPSSAPGMLPLSV
With B2, the binding entry with GST-paxillin (human) is listed as “binds”.

Values taken from paper PMC2684528.
